The list shows a part of the results, in another mix than the full data. For part of these data: At the low end of the ranking, values are background and their order means little. The list shows a part of the results. For part of these data: Construct or isoform of the protein are uncertain.

Holding throughout (assay): DAPPL (digital affinity profiling via proximity ligation, sequencing)
Holding throughout (conditions): 10 mM Tris-HCl pH 7.5, 50 mM NaCl, 1 mM DTT, 4% glycerol, room temperature, 30 min; GST-TFs on glutathione beads, 16-mer random dsDNA library, 0.1% …; high values mean tight binding; double strand, one strand shown; scale: fold enrichment (6-mer frequency, TF over GST control)

In one assay the target is T1, GABPA (UniProt Q06546).
T1 sequence: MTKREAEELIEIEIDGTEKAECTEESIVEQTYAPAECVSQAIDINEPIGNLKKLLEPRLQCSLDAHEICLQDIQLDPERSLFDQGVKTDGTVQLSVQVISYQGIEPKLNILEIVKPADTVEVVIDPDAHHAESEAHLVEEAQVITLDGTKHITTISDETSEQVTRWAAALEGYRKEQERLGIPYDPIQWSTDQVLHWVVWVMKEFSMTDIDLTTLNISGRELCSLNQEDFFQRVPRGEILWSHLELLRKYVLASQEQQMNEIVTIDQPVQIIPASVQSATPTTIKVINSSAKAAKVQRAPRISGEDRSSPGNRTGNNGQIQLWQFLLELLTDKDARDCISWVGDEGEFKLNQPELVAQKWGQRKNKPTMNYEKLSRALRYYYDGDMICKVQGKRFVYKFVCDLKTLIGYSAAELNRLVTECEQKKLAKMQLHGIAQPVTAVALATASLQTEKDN

For the next assay, the target named is T2, ETS1 (UniProt P14921).
T2 sequence: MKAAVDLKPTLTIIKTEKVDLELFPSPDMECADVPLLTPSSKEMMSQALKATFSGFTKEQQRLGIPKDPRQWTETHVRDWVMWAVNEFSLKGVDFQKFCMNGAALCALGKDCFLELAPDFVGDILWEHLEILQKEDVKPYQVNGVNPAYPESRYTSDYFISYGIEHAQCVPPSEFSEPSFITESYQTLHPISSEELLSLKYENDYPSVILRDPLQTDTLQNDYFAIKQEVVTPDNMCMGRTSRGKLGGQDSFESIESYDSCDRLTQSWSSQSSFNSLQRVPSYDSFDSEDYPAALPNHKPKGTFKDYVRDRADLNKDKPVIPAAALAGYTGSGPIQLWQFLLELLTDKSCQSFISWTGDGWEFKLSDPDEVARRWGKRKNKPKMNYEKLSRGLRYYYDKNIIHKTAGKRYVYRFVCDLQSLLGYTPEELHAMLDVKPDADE

For the next assay, the target named is T3, SPDEF (UniProt O95238).
T3 sequence: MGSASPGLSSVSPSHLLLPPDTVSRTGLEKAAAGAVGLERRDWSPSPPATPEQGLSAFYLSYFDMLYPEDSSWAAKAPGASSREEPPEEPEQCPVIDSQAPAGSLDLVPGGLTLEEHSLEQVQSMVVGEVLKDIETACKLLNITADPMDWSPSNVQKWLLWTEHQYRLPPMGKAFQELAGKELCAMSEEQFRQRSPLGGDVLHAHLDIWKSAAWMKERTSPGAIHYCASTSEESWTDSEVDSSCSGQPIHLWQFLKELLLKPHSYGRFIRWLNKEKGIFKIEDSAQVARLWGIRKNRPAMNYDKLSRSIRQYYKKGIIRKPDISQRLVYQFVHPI

As for CGGTGC, the values for the binding signal in the assay with GABPA, with ETS1 and with SPDEF were 0.682, 0.574 and 0.707, respectively.

Regarding GGGGCC, the figures for the binding signal with GABPA, with ETS1 and with SPDEF were 0.606, 0.601 and 0.591, respectively.

As to AAGACA, the binding signal with GABPA turned out to be 0.999; with ETS1 it was 0.982; with SPDEF it was 0.93.

Take GAGTAT: the binding signal with GABPA turned out to be 0.59; in the assay with ETS1 it was 0.627; with SPDEF, 0.536.

Regarding TAGCCG, the binding signal with GABPA was 0.891; in the assay with ETS1, 0.945; in the assay with SPDEF it was 0.934.

Consider TCGGCG, for which the binding signal was found to be 0.523 with GABPA, 0.508 with ETS1 and 0.465 with SPDEF.

Consider GTCGTT, for which the results for the binding signal with GABPA, with ETS1 and with SPDEF were 0.684, 0.708 and 0.678, respectively.

With TGAGGC, the values for the binding signal with GABPA, with ETS1 and with SPDEF were 0.469, 0.481 and 0.426, respectively.

Consider GTTCGG, for which the binding signal is 0.598 with GABPA, 0.64 with ETS1 and 0.612 with SPDEF.

For the sequence CGTGCA, the binding signal with GABPA was 0.738; with ETS1 it was 0.724; in the assay with SPDEF it was 0.677.

For GGGAGC, the binding signal stood at 0.377 in the assay with GABPA, 0.396 with ETS1 and 0.373 with SPDEF.

With GCCAAA, the binding signal came to 0.873 with GABPA, 0.972 with ETS1 and 0.863 in the assay with SPDEF.

With GGCGCG, the figures for the binding signal with GABPA, with ETS1 and with SPDEF were 0.72, 0.587 and 0.651, respectively.

On to CAGTCA, for which the binding signal stood at 0.481 with GABPA, 0.486 in the assay with ETS1 and 0.429 with SPDEF.

In the case of ACGGGC, the binding signal with GABPA worked out at 0.837; with ETS1, 0.78; with SPDEF it was 0.822.

Consider TGGAGC, for which the binding signal with GABPA stood at 0.597; with ETS1 it was 0.601; with SPDEF it was 0.569.

As for CGCATG, the binding signal in the assay with GABPA amounted to 0.658; in the assay with ETS1, 0.622; in the assay with SPDEF, 0.601.

Regarding GGGCGA, the binding signal with GABPA worked out at 0.761; in the assay with ETS1, 0.74; in the assay with SPDEF it was 0.797.

Turning to ATGAGT, the binding signal with GABPA is 0.671; with ETS1, 0.648; in the assay with SPDEF, 0.661.

As to GCTGGG, the binding signal in the assay with GABPA was found to be 0.806; with ETS1 it was 0.794; with SPDEF, 0.765.

Regarding TGTCGA, the results for the binding signal with GABPA, with ETS1 and in the assay with SPDEF were 0.831, 0.835 and 0.93, respectively.

Consider AGGATC, for which the values for the binding signal with GABPA, with ETS1 and in the assay with SPDEF were 0.817, 0.799 and 1.2, respectively.

GAGTAC: the values for the binding signal with GABPA, with ETS1 and with SPDEF were 0.558, 0.588 and 0.531, respectively.

AAGACG: the values for the binding signal in the assay with GABPA, with ETS1 and with SPDEF were 0.717, 0.784 and 0.725, respectively.

For TAGACC, the binding signal is 0.835 with GABPA, 0.916 in the assay with ETS1 and 0.891 with SPDEF.

On to GGTAGT, for which the binding signal was 0.735 in the assay with GABPA, 0.76 in the assay with ETS1 and 0.638 in the assay with SPDEF.

As for GTTAGG, the values for the binding signal in the assay with GABPA, in the assay with ETS1 and with SPDEF were 0.828, 0.769 and 0.846, respectively.

Regarding GGACTA, the binding signal with GABPA was 0.924; in the assay with ETS1 it was 0.805; in the assay with SPDEF it was 0.897.

Consider ACGTAG, for which the binding signal in the assay with GABPA amounted to 0.751; with ETS1 it was 0.762; in the assay with SPDEF, 0.735.

For ACCGCG, the binding signal with GABPA worked out at 0.838; with ETS1, 0.868; with SPDEF, 0.835.

For CGCATC, the binding signal with GABPA is 0.837; with ETS1, 0.925; with SPDEF, 1.02.

With AGCGCG, the binding signal with GABPA came out at 0.831; with ETS1, 0.895; with SPDEF it was 0.691.

GTCGGT: the binding signal with GABPA is 0.268; in the assay with ETS1, 0.261; in the assay with SPDEF, 0.279.

For the sequence GACCGT, the figures for the binding signal with GABPA, in the assay with ETS1 and in the assay with SPDEF were 0.514, 0.453 and 0.402, respectively.

As to TTAGAC, the binding signal with GABPA amounted to 0.73; with ETS1, 0.846; in the assay with SPDEF, 0.893.

With AGAGTG, the figures for the binding signal with GABPA, with ETS1 and with SPDEF were 0.633, 0.646 and 0.601, respectively.

As to AGGGCC, the binding signal stood at 0.979 with GABPA, 0.902 in the assay with ETS1 and 0.916 with SPDEF.

Turning to AAGAGT, the binding signal came out at 0.95 in the assay with GABPA, 0.837 with ETS1 and 0.789 with SPDEF.

On to TATCGG, for which the results for the binding signal with GABPA, with ETS1 and with SPDEF were 0.829, 0.848 and 0.854, respectively.

GACCAG: the binding signal in the assay with GABPA stood at 0.638; with ETS1 it was 0.642; in the assay with SPDEF it was 0.685.

Turning to CGGGGT, the binding signal in the assay with GABPA was 0.632; with ETS1, 0.598; with SPDEF, 0.656.

Take GGGCCA: the binding signal with GABPA turned out to be 0.735; in the assay with ETS1 it was 0.696; with SPDEF it was 0.672.

As for CAGTTT, the binding signal with GABPA is 0.904; with ETS1, 0.9; with SPDEF it was 0.836.

For CCCGTG, the binding signal amounted to 0.554 with GABPA, 0.584 with ETS1 and 0.529 with SPDEF.

In the case of CGCATA, the binding signal with GABPA stood at 0.716; with ETS1 it was 0.697; with SPDEF, 0.728.

Regarding GCTGAG, the binding signal with GABPA is 0.68; with ETS1, 0.738; with SPDEF, 0.582.

Turning to CTAGAG, the binding signal with GABPA is 0.903; with ETS1, 0.872; in the assay with SPDEF, 0.815.

With GTGTCA, the binding signal turned out to be 0.842 with GABPA, 0.799 in the assay with ETS1 and 0.799 in the assay with SPDEF.

For the sequence GGTCCG, the binding signal in the assay with GABPA came out at 0.832; in the assay with ETS1, 0.741; with SPDEF, 0.996.

Take GTGAAG: the binding signal with GABPA is 0.609; with ETS1, 0.643; with SPDEF, 0.605.

Turning to GGCCCG, the binding signal with GABPA is 0.806; in the assay with ETS1, 0.73; with SPDEF, 0.808.

Take GACAGA: the binding signal with GABPA was 0.686; in the assay with ETS1, 0.696; in the assay with SPDEF, 0.667.

On to GCCACG, for which the binding signal came to 0.972 with GABPA, 1 in the assay with ETS1 and 0.962 in the assay with SPDEF.

As to CTGAGA, the figures for the binding signal with GABPA, with ETS1 and in the assay with SPDEF were 0.805, 0.766 and 0.741, respectively.

AACGTG: the binding signal in the assay with GABPA turned out to be 0.354; with ETS1, 0.364; with SPDEF, 0.374.

ACAGGC: the binding signal stood at 0.68 in the assay with GABPA, 0.726 with ETS1 and 0.645 with SPDEF.

The record behind these values is paper PMC7862700.
